PubChem BioAssay AID686943, Drosophila RNAi Screening Center | 2013
Aim: 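Fly genes whose loss alters ERK activation after insulin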 (primary screen). System: Drosophila S2R+ haemocyte-like cells expressing YFP-tagged ERK (Rolled). Reagent: long dsRNA against Drosophila genes. Conditions: insulin stimulation versus unstimulated cells; dose and duration not given. Measurement: 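Antibody staining for doubly phosphorylated ERK divided by ERK-YFP signal, as plate z-scores, in insulin-treated and untreated cells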. Reading the numbers: replicate 1, z-score of dpERK with insulin and replicate 2, z-score of dpERK with insulin: higher = more active ERK per ERK-YFP after insulin; replicate 1, z-score of dpERK under basal conditions: higher = more basal active ERK per ERK-YFP.
The screen tested about 23,000 reagents; this is a random part of those that have a named target and a result. 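Extra replicates exist only for a retested subset of genes; insulin dose and duration not given; both raised and lowered dpERK matter.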 Reagents against one gene are numbered here. Further read-outs or replicates are left out here. Not given: the amount of reagent, the time to read-out.

no.	gene	reagent no.	replicate 1, z-score of dpERK with insulin	replicate 2, z-score of dpERK with insulin	replicate 1, z-score of dpERK under basal conditions
1	Fibp (GeneID 40163)	1	-1.5	-0.4	-0.82
2	H2.0 (GeneID 33841)	1	-3.54	0.28	0.83
3	H2.0 (GeneID 33841)	2	0.57	0.59	-1.11
4	Dna2 (GeneID 31934)	1	-0.57	-0.43	-0.01
5	CG33453 (GeneID 2768851)	1	-0.3	-0.49	-0.48
6	xmas-1 (retired record) (GeneID 44660)	1	-0.89	0.67	1.11
7	Obp57e (GeneID 326110)	1	-0.69	0.11	0.12
8	CG9813 (GeneID 41644)	1	-0.96	0.2	-0.83
9	sls (GeneID 44013)	1	0.94	0.05	-0.4
10	sls (GeneID 44013)	2	-1.61	-0.69	0.17
11	sls (GeneID 44013)	3	-0.18	-0.35	-1.31
12	BomBc2 (GeneID 37102)	1	1.04	2.24	0.56
13	CG10562 (GeneID 43066)	1	0.96	-0.72	-0.06
14	qjt (GeneID 39952)	1	-0.15	0.43	-1.11
15	RyR (GeneID 49090)	1	0.09	0.18	-0.34
16	Neb-cGP (GeneID 50417)	1	0.1	-0.72	1.84
17	CG14354 (GeneID 43120)	1	-0.23	-1.45	-0.53
18	CG10209 (GeneID 36652)	1	-0.03	0.33	-0.33
19	CG43867 (GeneID 31031)	1	-0.98	-0.7	-0.22
20	CG43867 (GeneID 31031)	2	0.52	0.35	0.03
21	CG43867 (GeneID 31031)	3	0.51	0.66	0.31
22	CG43867 (GeneID 31031)	4	0.85	1.14	0.16
23	CG43867 (GeneID 31031)	5	-0.07	1.52	-0.39
24	CG13676 (GeneID 38906)	1	-0.49	-0.19	0.19
25	CG4741 (GeneID 37939)	1	-0.16	-0.18	0.15
26	CG4741 (GeneID 37939)	2	-0.13	0.1	-0.52
27	Flo2 (GeneID 32425)	1	-0.14	-0.84	-0.05
28	Flo2 (GeneID 32425)	2	-0.19	0.78	-0.51
29	Phax (GeneID 35926)	1	0	0.23	-0.18
30	CG8547 (GeneID 36586)	1	0.46	-0.01	0.64
31	RhoBTB (GeneID 40249)	1	0.52	-0.49	0.78
32	CG15011 (GeneID 38518)	1	-1.44	-1.51	0.3
33	CG11456 (GeneID 40309)	1	0.58	-0.03	0.58
34	CR33318 (GeneID 3771976)	1	-0.54	1.33	0.17
35	Kap-alpha1 (GeneID 40160)	1	-2.03	-0.12	-0.29
36	CG17177 (GeneID 39601)	1	1.79	-1.05	-1.16
37	Jon25Bi (GeneID 33708)	1	-0.68	0.07	0.58
38	Fkbp12 (GeneID 37214)	1	0.13	-0.54	1.64
39	blw (GeneID 37617)	1	-0.17	0.63	-0.69
40	Paris (GeneID 33657)	1	0.66	-0.43	1.45
41	ft (GeneID 33627)	1	-0.35	0.23	0.12
42	Cyp6a19 (GeneID 36662)	1	1.23	-0.76	-0.27
43	Rift (GeneID 43756)	1	-0.05	-0.29	0.11
44	Syt4 (GeneID 40876)	1	0.31	0.28	0.18
45	AP-2sigma (GeneID 42525)	1	0.23	0.07	-0.29
46	Gr58b (GeneID 37502)	1	0.57	-0.01	1.26
47	HP1e (GeneID 41108)	1	-0.01	0.14	1.16
48	Rsod (GeneID 43586)	1	-0.04	0.1	0.86
49	Ktch (GeneID 43681)	1	7.19	1.11	0.14
50	Eglp1 (GeneID 37736)	1	0.43	0.19	-0.23
51	epsilonCOP (GeneID 33908)	1	-0.04	0.12	-0.04
52	CG31068 (GeneID 318578)	1	-0.21	-0.31	0.06
53	CG8128 (GeneID 32504)	1	-0.15	-0.05	-0.66
54	ihog (GeneID 33972)	1	-0.69	-0.38	-0.41
55	Ir7f (GeneID 7354418)	1	0.46	0	1.11
56	CG11911 (GeneID 33206)	1	-0.81	0.13	-0.22
57	CG33340 (GeneID 2768682)	1	-0.66	0.08	-0.27

Ordered by “replicate 2, z-score of dpERK with insulin” (ascending): 3 of the entries above.
gene	reagent no.	replicate 1, z-score of dpERK with insulin	replicate 2, z-score of dpERK with insulin	replicate 1, z-score of dpERK under basal conditions
Gr58b (GeneID 37502)	1	0.57	-0.01	1.26
AP-2sigma (GeneID 42525)	1	0.23	0.07	-0.29
Syt4 (GeneID 40876)	1	0.31	0.28	0.18
